Laboratory results from article doi:10.1101/2020.09.18.303834.
Results are given in words; binding and its absence hold for the method and conditions named. Binding seen in cells or lysates may run through a third protein. Some binding calls cover weakened binding; strength is not graded here.

By UniProt entry, the sequences of proteins in these tests, tags left out.
UniProt Q96RU2: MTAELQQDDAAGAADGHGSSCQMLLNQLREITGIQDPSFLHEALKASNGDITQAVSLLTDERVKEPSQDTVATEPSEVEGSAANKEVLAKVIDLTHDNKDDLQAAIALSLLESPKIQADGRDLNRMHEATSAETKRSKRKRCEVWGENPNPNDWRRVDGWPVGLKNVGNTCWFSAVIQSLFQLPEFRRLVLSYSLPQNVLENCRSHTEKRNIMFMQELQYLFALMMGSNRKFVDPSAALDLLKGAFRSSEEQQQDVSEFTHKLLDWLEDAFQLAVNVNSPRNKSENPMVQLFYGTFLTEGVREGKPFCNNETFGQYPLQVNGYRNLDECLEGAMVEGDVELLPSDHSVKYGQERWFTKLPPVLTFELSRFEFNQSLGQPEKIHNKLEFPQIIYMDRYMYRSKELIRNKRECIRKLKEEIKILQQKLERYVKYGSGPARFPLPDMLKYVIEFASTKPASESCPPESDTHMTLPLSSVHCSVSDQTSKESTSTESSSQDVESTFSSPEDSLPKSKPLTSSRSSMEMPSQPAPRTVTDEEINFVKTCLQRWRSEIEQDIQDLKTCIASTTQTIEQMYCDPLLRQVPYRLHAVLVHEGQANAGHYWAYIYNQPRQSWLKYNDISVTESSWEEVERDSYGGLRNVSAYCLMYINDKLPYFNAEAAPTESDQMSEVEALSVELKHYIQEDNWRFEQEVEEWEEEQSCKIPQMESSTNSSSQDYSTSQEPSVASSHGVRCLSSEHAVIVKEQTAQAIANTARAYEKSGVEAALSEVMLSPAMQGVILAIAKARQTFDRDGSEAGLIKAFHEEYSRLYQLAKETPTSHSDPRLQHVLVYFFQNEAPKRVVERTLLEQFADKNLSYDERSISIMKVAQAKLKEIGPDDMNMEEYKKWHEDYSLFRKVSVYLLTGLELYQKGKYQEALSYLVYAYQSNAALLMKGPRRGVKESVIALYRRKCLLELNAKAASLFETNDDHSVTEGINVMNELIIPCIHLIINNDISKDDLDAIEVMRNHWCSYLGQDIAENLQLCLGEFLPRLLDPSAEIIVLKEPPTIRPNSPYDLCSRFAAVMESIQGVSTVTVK
UniProt Q14980: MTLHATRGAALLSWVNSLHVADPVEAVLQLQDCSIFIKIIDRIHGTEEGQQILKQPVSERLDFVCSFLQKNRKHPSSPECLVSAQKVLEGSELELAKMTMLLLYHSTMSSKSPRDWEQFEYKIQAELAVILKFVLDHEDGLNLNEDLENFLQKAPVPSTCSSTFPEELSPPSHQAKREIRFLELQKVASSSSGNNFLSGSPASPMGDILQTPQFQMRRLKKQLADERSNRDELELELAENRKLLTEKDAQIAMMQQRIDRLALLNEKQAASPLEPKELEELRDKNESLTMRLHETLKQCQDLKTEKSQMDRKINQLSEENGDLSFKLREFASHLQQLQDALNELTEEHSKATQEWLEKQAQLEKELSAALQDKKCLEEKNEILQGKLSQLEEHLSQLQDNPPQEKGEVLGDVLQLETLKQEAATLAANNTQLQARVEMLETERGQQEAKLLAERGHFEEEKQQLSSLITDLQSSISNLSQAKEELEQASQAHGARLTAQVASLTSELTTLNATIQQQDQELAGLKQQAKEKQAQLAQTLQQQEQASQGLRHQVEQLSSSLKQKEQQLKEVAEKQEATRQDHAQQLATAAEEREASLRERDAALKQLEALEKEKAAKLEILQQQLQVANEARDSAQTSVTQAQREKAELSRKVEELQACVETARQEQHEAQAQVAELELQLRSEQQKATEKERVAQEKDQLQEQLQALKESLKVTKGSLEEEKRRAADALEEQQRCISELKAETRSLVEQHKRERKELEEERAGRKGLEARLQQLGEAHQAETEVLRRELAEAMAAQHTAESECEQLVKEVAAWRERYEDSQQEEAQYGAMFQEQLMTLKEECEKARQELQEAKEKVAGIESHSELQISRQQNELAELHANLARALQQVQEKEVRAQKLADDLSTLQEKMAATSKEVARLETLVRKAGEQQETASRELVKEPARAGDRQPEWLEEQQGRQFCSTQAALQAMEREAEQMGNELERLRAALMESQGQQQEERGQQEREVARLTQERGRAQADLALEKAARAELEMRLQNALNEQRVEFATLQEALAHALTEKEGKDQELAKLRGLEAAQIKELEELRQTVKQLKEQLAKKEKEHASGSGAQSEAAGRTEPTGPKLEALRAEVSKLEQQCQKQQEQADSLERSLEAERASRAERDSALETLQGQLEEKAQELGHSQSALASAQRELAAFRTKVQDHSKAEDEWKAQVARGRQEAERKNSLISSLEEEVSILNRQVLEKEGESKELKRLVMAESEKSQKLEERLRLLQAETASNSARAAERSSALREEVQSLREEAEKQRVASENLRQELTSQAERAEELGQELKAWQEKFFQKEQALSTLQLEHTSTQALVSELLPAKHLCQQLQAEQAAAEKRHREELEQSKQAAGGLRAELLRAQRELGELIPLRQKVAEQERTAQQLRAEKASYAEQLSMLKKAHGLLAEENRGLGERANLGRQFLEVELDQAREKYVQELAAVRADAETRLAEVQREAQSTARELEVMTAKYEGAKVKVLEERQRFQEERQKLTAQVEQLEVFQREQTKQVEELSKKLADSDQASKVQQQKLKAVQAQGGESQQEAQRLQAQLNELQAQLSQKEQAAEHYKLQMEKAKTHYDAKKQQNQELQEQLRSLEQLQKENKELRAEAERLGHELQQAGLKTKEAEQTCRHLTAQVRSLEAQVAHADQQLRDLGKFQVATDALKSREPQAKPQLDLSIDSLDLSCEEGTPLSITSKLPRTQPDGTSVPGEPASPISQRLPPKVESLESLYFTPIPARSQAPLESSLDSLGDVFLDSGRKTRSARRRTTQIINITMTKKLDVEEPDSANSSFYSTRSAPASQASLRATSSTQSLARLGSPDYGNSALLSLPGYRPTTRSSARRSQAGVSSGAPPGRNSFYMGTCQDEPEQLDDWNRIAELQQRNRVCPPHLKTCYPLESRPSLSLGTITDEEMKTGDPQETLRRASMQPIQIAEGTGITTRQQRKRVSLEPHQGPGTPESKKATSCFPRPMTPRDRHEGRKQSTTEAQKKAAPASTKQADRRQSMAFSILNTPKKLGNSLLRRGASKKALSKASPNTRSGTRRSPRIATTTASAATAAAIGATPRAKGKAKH

Molecular target: USP28 (Ubiquitin Specific Peptidase 28) (human (endogenous in HCT116)) (UniProt Q96RU2)
Experiment: co-IP

- binding: binds
Substance: Nuclear mitotic apparatus protein 1 (NuMA1) (from UniProt Q14980 1-2115)
